These are yes or no findings as the source states them, for the method shown. For some assays here: In cells and extracts the contact can be indirect. Some binding calls cover weakened binding; strength is not graded here. Sequences can lack the tags named with a protein.

The target in experiment [1] is T1, cleaved RsiV^6×His (B. subtilis) (UniProt O05403).
T1 sequence: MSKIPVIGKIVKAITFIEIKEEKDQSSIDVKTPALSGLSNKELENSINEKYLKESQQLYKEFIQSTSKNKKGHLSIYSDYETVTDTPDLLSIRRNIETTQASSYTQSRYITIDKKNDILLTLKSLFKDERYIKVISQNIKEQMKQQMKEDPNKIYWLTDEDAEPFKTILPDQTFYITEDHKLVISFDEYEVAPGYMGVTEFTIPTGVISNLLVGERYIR
The experiment in a line: pull-down; B. subtilis JLH548 producing RsiV-6×His protoplasted with HEW lysozyme (37°C, 45 min); supernatant batch purified on Ni resin; co-eluting band identified by N-terminal sequencing; only the binder purified.

Experiment [2] has as its target T2, GST-RsiV^59–285 (B. subtilis, UniProt O05403 59-285).
T2 construct: plasmid pKBW204 (pDEST15); source: E. coli BL21(DE3), purified (Glutathione HiCap Matrix); not shown: GST, N-terminal, kept
T2 sequence (looked up): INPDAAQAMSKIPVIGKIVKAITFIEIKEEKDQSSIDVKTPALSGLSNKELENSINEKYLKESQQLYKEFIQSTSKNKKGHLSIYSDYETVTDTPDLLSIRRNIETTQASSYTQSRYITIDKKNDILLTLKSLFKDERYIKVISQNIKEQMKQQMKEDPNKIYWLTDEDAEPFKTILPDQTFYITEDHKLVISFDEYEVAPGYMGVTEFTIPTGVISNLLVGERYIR
As to the kind of experiment: condition: 2 mg of mutanolysin applied to the column; pull-down; 2 mg purified GST-RsiV^59–285 on a Glutathione HiCap Matrix column in PBS-EW; 2 mg of HEW lysozyme, human lysozyme or mutanolysin applied; washed with PBS-EW, eluted with TNGT; SDS-PAGE; both purified.

Take “HEW lysozyme (from UniProt P00698 19-147) (enzyme)”: the binding entry in experiment [1] is “binds”.

B1: mutanolysin (enzyme, UniProt P25310 78-294)
chain: DTSGVQGIDVSHWQGSINWSSVKSAGMSFAYIKATEGTNYKDDRFSANYTNAYNAGIIRGAYHFARPNASSGTAQADYFASNGGGWSRDNRTLPGVLDIEHNPSGAMCYGLSTTQMRTWINDFHARYKARTTRDVVIYTTASWWNTCTGSWNGMAAKSPFWVAHWGVSAPTVPSGFPTWTFWQYSATGRVGGVSGDVDRNKFNGSAARLLALANNTA
Turning to B1, the binding result in experiment [2] was “no binding”.

(Values after PMC4183432, “Evidence of a Bacterial Receptor for Lysozyme: Binding of Lysozyme to the Anti-σ Factor RsiV Controls Activation of the ECF σ Factor σ^V” (PLoS Genetics, 2014).)
